The campaign covered roughly 340,000 compounds. About 490 (0.14%) were called active. Inconclusive means that the source gave no clear call. Such entries were picked first, then a sample of the others. Rule as the data show it: active = inhibition above about 12%; inconclusive = no clear call, values can overlap the other calls; inactive = below about 7.3%. Some compounds were tested as several samples or in several runs, with calls that do not always agree.
molecular target: Kelch-like ECH-associated protein 1 (Homo sapiens) (UniProt Q14145); experiment: disruptors of Keap1 binding to Nrf2 – biochemical, fluorescence polarization, single point, primary screen (AID 504523); settings: Keap1 Kelch-Nrf2 peptide fluorescence polarization, 1536-well; at 9.4 µM; hits give high values;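 also: human Keap1 Kelch domain with fluorescein labeled Nrf2 9mer peptide probe; 0% = neutral control wells and 100% = peptide positive control; higher means more block of Keap1 binding to Nrf2 peptide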

Sequences of proteins named here, by UniProt entry; tags and fusion partners are left off.
UniProt Q14145, whole entry, looked up: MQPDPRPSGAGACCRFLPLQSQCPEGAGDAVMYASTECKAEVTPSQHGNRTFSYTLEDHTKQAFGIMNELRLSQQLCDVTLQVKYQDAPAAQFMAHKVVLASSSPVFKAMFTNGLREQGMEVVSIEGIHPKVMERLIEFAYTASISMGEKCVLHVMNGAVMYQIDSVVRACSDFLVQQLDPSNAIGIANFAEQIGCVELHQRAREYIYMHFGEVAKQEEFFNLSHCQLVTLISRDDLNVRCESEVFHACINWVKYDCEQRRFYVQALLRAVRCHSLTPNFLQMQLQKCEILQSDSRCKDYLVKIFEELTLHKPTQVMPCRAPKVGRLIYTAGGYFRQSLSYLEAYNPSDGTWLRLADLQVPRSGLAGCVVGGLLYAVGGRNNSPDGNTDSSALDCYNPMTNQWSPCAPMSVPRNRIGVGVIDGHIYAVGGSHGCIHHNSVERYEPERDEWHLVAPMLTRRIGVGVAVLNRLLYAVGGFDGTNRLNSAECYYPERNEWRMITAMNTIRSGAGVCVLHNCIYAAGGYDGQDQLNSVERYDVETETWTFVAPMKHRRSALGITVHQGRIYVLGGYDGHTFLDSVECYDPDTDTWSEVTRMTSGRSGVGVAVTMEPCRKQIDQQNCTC

inhibition, inconclusive:
O=S(=O)(NN1CCOCC1)c1ccc(Cl)s1 9.34%, CCN(CC)c1ccc(-c2c(C#N)c(N)nc(OC)c2C#N)cc1 9.1%, C(=Nc1cccc2c(N=Cc3ccco3)cccc12)c1ccco1 11.9%, COc1ccc(S(=O)(=O)N2CCC(C(N)=O)CC2)cc1 7.26%, Cc1ccc(-c2nc(C#N)c(NCCCn3ccnc3)o2)cc1 10.3%, CSCCC(NC(=O)c1ccc(Cl)cc1Cl)C(=O)N1CCN(C(=O)c2ccccc2)CC1 (stereo unspecified) 7.95%, CCOC(=O)C1CCCN(c2c(NCCCN3CCCC(C)C3)c(=O)c2=O)C1 (stereo unspecified) 7.48%, NC(=S)NN=Cc1ccc(-c2ccc(S(=O)(=O)Nc3ncccn3)cc2)o1 11.6%, CCN1CCCC1CNC(=O)C(=O)NC(C)C (stereo unspecified) 10.8%, CCOC(=O)C1=C(N)Oc2cc(O)ccc2C1c1cccnc1 (stereo unspecified) 6.88%, COC/C=C/C1=CC2=CC(=O)C(C)(OC(=O)c3cnc4ccccc4n3)C(=O)C2=CN1C1CC1 (stereo unspecified) 8.4%, Cc1cc(=O)n2[nH]c(C)cc2n1 3.17%, COc1cccc(CNC(=O)CCSCc2ccccc2F)c1 11%, CCCCc1ccc(-c2ccc(Br)cc2O)nc1 6.91%, N#C/C(=C\c1ccc(O)cc1)c1nc2ccccc2o1 11.5%, COC(=O)C1CSc2[nH]c(=O)sc2C1c1ccccc1 (stereo unspecified) 11.2%, Cc1cc([N+](=O)[O-])ccc1NC(=O)CN1C2CCC1CC(NC(=O)NC13CC4CC(CC(C4)C1)C3)C2 (stereo unspecified) 4.05%, Cc1c(O)c(S(=O)c2ccccc2)c(=O)n(-c2ccccc2)c1-c1ccccc1 (stereo unspecified) 4.6%, COc1ccc(C(=O)NC2CCN(C(=S)Nc3ccc(C)cc3)CC2)cc1 10.1%, Cc1nn(Cc2ccc(F)cc2)c(C)c1NC(=O)c1cccnc1Cl 11%, CN1c2ccc(C=O)c3c(C=O)ccc(c23)N(C)C1(C)C 11.7%, Cc1ccc(NC(=O)CSCc2nc3c(nnn3Cc3ccc(F)cc3)c(=O)[nH]2)c(C)c1 10.3%

inhibition, active:
O=C(CN1C(=O)NC2(CCCC2)C1=O)Nc1ccc(C(F)(F)F)cc1 12.1%, CN(CCOc1ccc(CC2SC(=O)NC2=O)cc1)c1ccccn1 (stereo unspecified) 44.6%, O=[N+]([O-])c1cncc([N+](=O)[O-])c1Nc1cccc(O)c1 35.2%, CN1/C(=C\C=C(/C#N)C(=O)Nc2ccc(Cl)cc2)C(C)(C)c2ccccc21 14%, Cn1c(SCC(=O)c2cc(Cl)c(Cl)s2)nnc1-c1ccco1 31.9%, CCOc1ccc(S(=O)(=O)Nc2cc(NS(=O)(=O)c3ccc(OCC)cc3)cc(C(=O)O)c2)cc1 22%, Oc1c(Br)cc(/C=N/n2c(-c3ccccc3)n[nH]c2=S)c(O)c1Br 23.6%, CCOC(=O)C(C)(C)N(Cc1ccccc1C)S(=O)(=O)c1ccc(Cl)c([N+](=O)[O-])c1 27.3%, CC(=O)OCCn1c2nc(=O)[nH]c(=O)c-2nc2cc(C)c(C)cc21 156%, O=c1[nH]c(/C=C/c2cccc3ccccc23)nc2ccccc12 16.6%

inhibition, inactive:
Cc1cc(C)cc(N2C(=O)CSC2c2cccs2)c1 (stereo unspecified) 2.99%, Cc1ccc(C)c(OCC(=O)N(C)CC(=O)Nc2ccc(Cl)c(C(F)(F)F)c2)c1 -6.79%, Cc1cc(CSc2ccccc2)ccc1NC(=O)c1cccc([N+](=O)[O-])c1 -0.201%, Cc1cnc(NC(=O)NCC2CCCC(CNC(=O)Nc3ncc(C)s3)C2)s1 (stereo unspecified) -2.18%, Cc1noc(C)c1C(=O)N1CCC(C(=O)c2ccc(F)cc2F)CC1 -0.471%, O=C(CSc1nnc(NC(=O)C2CC(=O)N(c3ccc(F)cc3)C2)s1)NC1CCCC1 (stereo unspecified) -2.4%, Cc1ccc(-c2cn3cccnc3n2)cc1NC(=O)c1cccs1 -3.12%, Cn1cc(Cl)c(C(=O)Nc2nc3ccc(Cl)cc3s2)n1 -3.54%, Cc1cc(C)nc(NC(=S)Nc2cccc(F)c2)c1 -2.03%, CCn1nc(C)cc1-c1nnc(Sc2ncc([N+](=O)[O-])s2)n1C 9.69%, N#Cc1ccccc1NC(=O)COC(=O)COc1ccccc1[N+](=O)[O-] 0.273%, O=C(C1=C[C@@H](c2ccc(C(F)(F)F)cc2)C[C@@H](OCCCCO)O1)N1CCN(Cc2ccc3c(c2)OCO3)CC1 -4.37%, CNC(=O)c1csc(-c2ccc(Cl)cc2)n1 1.99%, COC1=C(C)C(=O)C2=C(C1=O)C1C3CC4=C(C(=O)C(OC)=C(C)C4=O)C(CNC(=O)C(C)=O)N3C(C#N)C(C2)N1C (stereo unspecified) -7.82%
